We go through two molecules from patent US20160069900A1.

Protein sequences, listed by entry. Tags and fused reporters are not part of them.
UniProt Q9NZQ7: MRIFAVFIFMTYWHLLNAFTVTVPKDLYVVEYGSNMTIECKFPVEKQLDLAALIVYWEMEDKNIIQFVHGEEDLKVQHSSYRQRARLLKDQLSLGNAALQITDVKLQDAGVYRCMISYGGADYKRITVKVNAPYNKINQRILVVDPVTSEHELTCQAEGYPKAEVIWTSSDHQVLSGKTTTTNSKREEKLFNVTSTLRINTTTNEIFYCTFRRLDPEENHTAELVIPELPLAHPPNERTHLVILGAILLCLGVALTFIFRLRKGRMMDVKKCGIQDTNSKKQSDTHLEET

This assay addresses soluble PD-L1 in serum test samples (human) (UniProt Q9NZQ7). Kind of assay: depletion of 1/5 diluted serum with antibody-coupled agarose beads, read by ECL sandwich immunoassay.

Results are given in words; binding and its absence hold for the method and conditions named. Some binding calls cover weakened binding; strength is not graded here.

B1: Monoclonal Antibody 22C3 (antibody, V domains shown)
VH: QVHLQQSGAELAKPGASVKMSCKASGYTFTSYWIHWIKQRPGQGLEWIGYINPSSGYHEYNQKFIDKATLTADRSSSTAYMHLTSLTSEDSAVYYCARSGWLIHGDYYFDFWGQGTTLTVSS
VL: DIVMSQSPSSLAVSAGEKVTMTCKSSQSLLHTSTRKNYLAWYQQKPGQSPKLLIYWASTRESGVPDRFTGSGSGTDFTLTISSVQAEDLAVYYCKQSYDVVTFGAGTKLELK
For B1, the binding result was “binds”.

B2: Monoclonal Antibody 5F9 (antibody, V domains shown)
VH: EVHLQQSGPELVKPGASVKISCKASGAPFTDFNIHWMKQSHGGSLEWIGSIYPYNGNTNYNQKFKNKATLTVDDSSITAYMEFRSLTSEDSAFYYCARGYIVTTAWFAYWGQGTLVTVSA
VL: DIVMTQSHKFMSTSVGDRVSITCKASQDTSTAVAWYQQKPGQSPKLLIYWASTRHTGVPDRFTGSASGIDFTLTISSLQAEDLALYYCQQHYRTPWTFGGGTKLEIK
For B2, the binding entry is recorded as “binds”.
